Data: paper PMC10104830
No constants are given. Whether binding was seen depends on the method and setting. For some of these results: Binding seen in cells or lysates may run through a third protein. Some entries that bind do so weakly or less than the wild type. Where a sequence is shown, tags or fusion partners need not be part of it. One block for each binder: values may come before it.

Legend:
[1] = target: T1, GAL4BD-SMXL5 fusion protein (Arabidopsis thaliana) (UniProt Q9LU73); test: two-hybrid; Matchmaker Two-Hybrid System 3, yeast strain AH109; dilution series (OD600 1-0.001) grown for 3 days on SD -Leu/-Trp/-His/-Ade selecting for interaction; SMXL5 fused to GAL4 BD
T1 sequence: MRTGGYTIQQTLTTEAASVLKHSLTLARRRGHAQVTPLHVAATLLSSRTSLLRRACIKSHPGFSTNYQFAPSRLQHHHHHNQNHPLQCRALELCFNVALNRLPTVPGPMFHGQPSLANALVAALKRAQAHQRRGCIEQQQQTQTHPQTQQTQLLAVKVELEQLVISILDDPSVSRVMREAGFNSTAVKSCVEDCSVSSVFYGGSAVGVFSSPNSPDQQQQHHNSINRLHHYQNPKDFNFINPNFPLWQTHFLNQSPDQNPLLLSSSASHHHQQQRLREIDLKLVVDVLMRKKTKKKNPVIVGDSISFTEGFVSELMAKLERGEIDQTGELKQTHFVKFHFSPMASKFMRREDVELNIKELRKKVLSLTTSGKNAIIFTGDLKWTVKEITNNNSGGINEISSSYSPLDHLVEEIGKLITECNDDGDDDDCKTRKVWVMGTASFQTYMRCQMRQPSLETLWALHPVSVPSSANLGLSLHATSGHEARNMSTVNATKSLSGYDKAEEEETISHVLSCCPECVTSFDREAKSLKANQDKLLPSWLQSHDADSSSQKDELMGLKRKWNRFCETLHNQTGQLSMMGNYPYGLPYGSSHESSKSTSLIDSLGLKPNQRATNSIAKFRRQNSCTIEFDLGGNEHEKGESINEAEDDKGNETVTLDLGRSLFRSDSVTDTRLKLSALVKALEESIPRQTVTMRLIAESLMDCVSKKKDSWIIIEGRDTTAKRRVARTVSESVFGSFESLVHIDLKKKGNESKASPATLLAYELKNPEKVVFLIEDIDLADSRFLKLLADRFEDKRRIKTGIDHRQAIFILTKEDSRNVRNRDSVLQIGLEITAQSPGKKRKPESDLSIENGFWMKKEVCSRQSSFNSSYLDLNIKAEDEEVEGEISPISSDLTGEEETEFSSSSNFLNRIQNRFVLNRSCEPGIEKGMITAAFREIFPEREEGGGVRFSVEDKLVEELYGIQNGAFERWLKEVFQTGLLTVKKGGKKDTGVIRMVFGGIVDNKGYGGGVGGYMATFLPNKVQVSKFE

[2] = target: T2, SMXL5-3xHA (Arabidopsis thaliana) (UniProt Q9LU73); test: co-IP; protein extracts of N. benthamiana leaves transiently co-expressing both proteins (35S promoter); Anti-HA MicroBeads, 2.5 h at 4 °C; western blot with anti-HA and anti-Myc
T2 sequence: T1 sequence

[3] = target: T3, SMXL5-mCherry (Arabidopsis thaliana) (UniProt Q9LU73); test: FRET or BRET; FRET-FLIM in nuclei of transiently transformed N. benthamiana epidermal leaf cells; OBE3-mGFP donor, mCherry fusions as acceptor; donor lifetime measured
T3 sequence: T1 sequence

binding [1]: binds
B1: OBE2 protein tested with SMXL5 in yeast cells in independent experiments (protein, UniProt Q9LUB7 1-574)
chain: MGTSSGSNHPHQMLPPRQQQRSGGGLETALSLVSSDQEPRRESPAESASSQETWPLGDTVAGKKSMSQKTEPDSMEQTVNVMHHVSNADKVSVRDIARERVELVAERMHRLPDEFLDELKNGLKSILEGNVAQSVDEFMFLQKVVQSRTDLSSVTLVRAHRVQLEILVAINTGIQAFLHPNISLSQPSLIEIFVYKRCRNIACQNQLPADDCYCDICTNRKGFCNLCMCTICNKFDFSVNTCRWIGCDLCSHWTHTDCAIRDGQITTGSSAKNNTSGPGEIVFKCRACNRTSELLGWVKDVFQHCAPNWDRESLMKELDFVSRIFRGSEDQRGRKLFWKCEELIDKIKGGLAEATAAKLILMFFQEIESDSAKSFENGEGGRLMAPQDACNRIAEVVQETLRKMEIVAEEKMRMFKKARMALETCDRELEDKAKEVSELKAERQKKKLQIDELERIVRLKQAEADMFQLKANEAKREADRLQRIVLAKMDKSEEEYASNYLKQRLSEAEAEKQYLFEKIKLQENSRVASQSSGGGGDPSQVMMYSKIRDLLQGYNLSPKVDPQLNERNPFRSNP

binding [3]: binds
B4: OBE3-mGFP (protein, UniProt Q94B71 1-733)
chain: MIGEKDLAGDGECSRTKTSKPRFSNLNNQTHQDDKTGQYHQKGVDFLNVRSNNLDGGFSSKSSPRSGNELTLSYLCENSGKLAESLGQKGKEVVTFSENSSYDDKWVERDFFNLREMNPNSSKRKAHEEEEEAEEEEDKKSNKIETLNLSLALPDVSLSLTASNAVKRPRVVTSERTTTSFSNDFTATAPSMSYSYSHPFSHNISCSMTRNSTDFDCSVGKDDHIWCAGEGTNGSVHSRFRPIGDGGVALANNPVSGKPSSSADYSFFPSELPARPGNEVTISGDSRKKVANLEDNDAVRSERVLYDIVSKSISSVALIIQGMADETLESAKEYLRNLIDSPEKKEKLVNLQNQIDKRSDLSKETLSKCVKDQLDILVAVRTGLKYFLSGKIRIPMNELVEIFLFLRCRNVNCKSLLPVDDCECKICSNNKGFCSSCMCPVCLRFDSASNTCSWVGCDVCSHWCHAACGIQKNLIKPGHSLKGQRGTTEMMFHCIGCAHKSEMFGFVKDVFVCCAKNWGLETLIKELDCVRKVFRGSDDAKGKALHLKANEMVKKLESKQISPLDASNFIIQFFNYAESIPEIPDPPRELTVAAETSYRKDEASVTPSTSKDQKKKSFALTDAMMNSFDSLESMVRIKEAETRMFQKKADEARIEAESFKRMIEMKTEKMEEEYTEKLARLCLQETEERRRNKLEELKKLENSHCDYRNMKLRMEAEIAGLLKRMEVTRQQLV

More lines, now with the values behind:

B2: GAL4AD-OBE3 fusion protein (protein, UniProt Q94B71 1-733)
chain: B4 chain
binding [1]: binds

B3: 6xMyc-OBE3 (protein, UniProt Q94B71 1-733)
chain: B4 chain
binding [2]: binds
